Results as given in patent US5386017A, “Alkenes for producing chemiluminescent 1, 2-dioxetane compounds” (priority 1990, dated 1995).

Test: Base triggering of chemiluminescence of hydroxy-substituted dioxetanes
Type: physicochemical
Conditions: for base-induced decomposition, chemiluminescence: room temperature

SMILES | chemiluminescence with other bases (methanol with KOH or o-xylene with n-BuLi) | base-induced decomposition, chemiluminescence
COC1(c2ccc3cc(O)ccc3c2)OOC12C1CC3CC(C1)CC2C3 (stereo not shown) [Dioxetane 2b, 4-(6-Hydroxy-2-naphthyl)-4-methoxyspiro[1,2-dioxetane-3,2'-adamantane]] | bright blue chemiluminescence with similar decay rates | –
Oc1ccc2c(c1)C1(OOC13C1CC4CC(C1)CC3C4)c1ccccc1-2 (stereo not shown) [Dioxetane 4a] | – | produced chemiluminescence at room temperature
Oc1ccc2c(c1)Oc1ccccc1C21OOC12C1CC3CC(C1)CC2C3 (stereo not shown) [Dioxetane 6a] | – | produced chemiluminescence at room temperature
COC1(c2cccc(O)c2)OOC12C1CC3CC(C1)CC2C3 (stereo not shown) [Dioxetane 8a] | – | produced chemiluminescence at room temperature

Some entries repeat one wording, which the source may state once for all of them.
